Experimental data: article PMC9992707
These are yes or no findings as the source states them, for the method shown. In cells and extracts the contact can be indirect. Some entries that bind do so weakly or less than the wild type. Sequences can lack the tags named with a protein.

Sequences of proteins named here, by UniProt entry; tags and fusion partners are left off.
UniProt Q9QZL0: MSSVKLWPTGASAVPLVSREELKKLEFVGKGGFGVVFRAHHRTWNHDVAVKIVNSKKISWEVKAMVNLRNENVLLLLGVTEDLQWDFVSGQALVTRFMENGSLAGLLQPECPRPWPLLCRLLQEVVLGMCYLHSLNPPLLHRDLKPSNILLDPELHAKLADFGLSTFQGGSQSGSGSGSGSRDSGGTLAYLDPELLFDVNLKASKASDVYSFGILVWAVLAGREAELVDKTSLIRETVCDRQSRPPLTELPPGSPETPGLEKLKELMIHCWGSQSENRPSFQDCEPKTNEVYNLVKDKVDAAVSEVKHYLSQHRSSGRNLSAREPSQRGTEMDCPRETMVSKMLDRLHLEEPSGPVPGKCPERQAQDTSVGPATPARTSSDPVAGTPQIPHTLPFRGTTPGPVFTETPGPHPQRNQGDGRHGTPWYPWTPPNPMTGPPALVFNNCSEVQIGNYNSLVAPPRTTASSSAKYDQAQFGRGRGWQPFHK

Molecular target: T1, 3×Flag-HA-ZBP1 (UniProt Q9QY24)
T1 sequence: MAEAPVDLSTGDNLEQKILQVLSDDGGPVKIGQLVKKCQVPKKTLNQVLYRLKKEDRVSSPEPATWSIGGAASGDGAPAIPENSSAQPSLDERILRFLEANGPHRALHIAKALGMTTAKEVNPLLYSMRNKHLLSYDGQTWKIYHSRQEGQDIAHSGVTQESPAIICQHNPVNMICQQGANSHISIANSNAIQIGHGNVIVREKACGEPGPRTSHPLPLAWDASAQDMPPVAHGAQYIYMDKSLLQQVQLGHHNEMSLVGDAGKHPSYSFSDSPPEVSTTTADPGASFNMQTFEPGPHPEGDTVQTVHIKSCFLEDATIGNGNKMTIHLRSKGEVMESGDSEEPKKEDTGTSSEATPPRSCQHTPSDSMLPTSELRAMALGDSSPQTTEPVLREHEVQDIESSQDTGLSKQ
Assay: co-IP; lysate of Setdb1 cKO mES cells overexpressing 3×Flag-HA-ZBP1 or RIP1-HA (Setdb1 knockout, 2iL condition); lysis buffer 50 mM Tris-HCl pH 7.4, 1% NP-40, 150 mM NaCl, 1 mM EDTA, 5% glycerol; anti-HA magnetic beads or anti-Flag M2 beads, 3 h at 4 °C; 5 washes

- binding: binds
Substance: RIPK3 (from UniProt Q9QZL0 1-486)
